From patent publication US9895338B1, “Cobalt-polypyridyl complex for treatment of cancer, a pharmaceutical composition and a kit comprising it” (Macau University of Science and Technology, priority 2016, dated 2018)
Some of these results come from one statement about several compounds together.

Tested on: cancer cells from different origins
Test: MTT cytotoxicity assay, summary over cancer cell lines
Type: cell-based
Conditions: range over the cancer cell lines of Table 1; read-out: mean IC50 values ranging (anti-cancer potency)
Procedure: All prepared cobalt-polypyridyl complexes were dissolved in DMSO at a final concentration of 50 mmol/L and stored at −20° C. before use. Cytotoxicity was assessed by using the 3-(4,5-dimethylthiazol-2-yl)-2,5-diphenyltetrazolium bromide (MTT) (5.0 mg/ml) assay as previously described (Wong, V. K. et al., Cell Death Dis, 2013, 4, e720). Briefly, 4×10^3 cells per well were seeded in 96-well plates before drug treatments. After overnight culture, the cells were then exposed to different concentrations of selected compounds (0.039-100 μmol/L) for 72 h. Cells without drug treatment were used as control. Subsequently, MTT (10 μL) solution was added to each well and incubated at 37° C. for 4 h followed by the addition of 100 μL solubilization buffer (10% SDS in 0.01 mol/L HCl) and overnight incubation. A570 nm was then determined in each well on the next day. The percentage of cell viability was calculated using the following formula: Cell viability (%)=Atreated/Acontrol×100. Data were obtained from three independent experiments. Cells include HeLa cells (cervical cancer), MCF-7 (breast cancer), H1299, H1975, A549 and LLC-1 (lung cancer), HepG2 and Hep3B (liver cancer) and LO2 (normal human hepatocytes).
By contrast, the cytotoxicity was lower in LO2 normal human hepatocytes. […] Although the Co^2+ and Co^3+ complexes are considered as inert d^5 and lable d^6 species, respectively, for bioreductive activation as redox-activated prodrugs through ligand modification, there is no direct relationship in the nature of spin state on the cytotoxic effect. […] On the other hand, the larger coordination sphere size and higher lipophilicity may account for the high IC50 values of complex (VIII).

| Molecule | IC50 [µM] |
| --- | --- |
| [Co^II(4,4′-Me2-Bpy)3](PF6)2 [complex (III)] | 2.79 to 18.6 |
| F[P-](F)(F)(F)(F)F.F[P-](F)(F)(F)(F)F.[Co+2].c1ccc(-c2ccccn2)nc1.c1ccc(-c2ccccn2)nc1.c1ccc(-c2ccccn2)nc1 [complex (V), [Co^II(N^N)3](PF6)2] | 6.92 to 37.2 |
| F[P-](F)(F)(F)(F)F.F[P-](F)(F)(F)(F)F.F[P-](F)(F)(F)(F)F.[Co+3].c1ccc(-c2ccccn2)nc1.c1ccc(-c2ccccn2)nc1.c1ccc(-c2ccccn2)nc1 [complex (VI), [Co^III(N^N)3](PF6)3] | 6.92 to 37.2 |
